Source: PubChem BioAssay AID1224830 (NIAID, 2016)

- Aim: 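Genes whose knock-down alters the TNF-alpha reporter response to LPS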 (primary screen)
- Cells: human THP-1 monocytic leukaemia cells, TNF dual-luciferase reporter clone, PMA-differentiated to macrophage-like cells
- Reagent: siRNA pool against human genes, 50 nM
- Timing: LPS for 4 h, given about 3 days after siRNA transfection
- Conditions: bacterial LPS (TLR4 ligand), 10 ng/ml
- Measured: 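TNF firefly reporter luminescence divided by renilla, normalised to the plate median, then turned into a robust z-score for each replicate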
- Scale: TNF reporter robust z-score: higher = stronger TNF reporter response to LPS
- Hit rule: 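Each well counts as active if its z-score is over 2.8 or under -1.5; controls are left without a call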
This is one part, drawn at random, of about 18,000 reagents. In the full data, about 2,900 (16%) were called active. 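Calls are made per well; low scores hint the gene aids the LPS response, high scores that it dampens it.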 Repeated entries: four replicate wells of each siRNA pool. Reagent sequences are not shown.

| gene | TNF reporter robust z-score | Call |
| --- | --- | --- |
| CFAP77 | -0.08 | inactive |
| CFAP77 | 0 | inactive |
| CFAP77 | -0.69 | inactive |
| CFAP77 | -0.23 | inactive |
| OVOS2P | 0.64 | inactive |
| OVOS2P | 1.57 | inactive |
| OVOS2P | 1.41 | inactive |
| OVOS2P | 1.7 | inactive |
| NME6 | -0.41 | inactive |
| NME6 | -0.93 | inactive |
| NME6 | -0.14 | inactive |
| NME6 | 0.02 | inactive |
| DNAJC22 | -0.36 | inactive |
| DNAJC22 | -0.49 | inactive |
| DNAJC22 | 0.15 | inactive |
| DNAJC22 | -0.65 | inactive |
| ITGA5 | -0.93 | inactive |
| ITGA5 | -0.98 | inactive |
| ITGA5 | -0.92 | inactive |
| ITGA5 | -0.16 | inactive |
| ATAD1 | -1.49 | inactive |
| ATAD1 | -1.23 | inactive |
| ATAD1 | -1.43 | inactive |
| ATAD1 | -0.01 | inactive |
| H2BC17 | -0.87 | inactive |
| H2BC17 | -1.06 | inactive |
| H2BC17 | -1.39 | inactive |
| H2BC17 | -1.08 | inactive |
| ARHGEF10 | -0.05 | inactive |
| ARHGEF10 | 1.39 | inactive |
| ARHGEF10 | 0.64 | inactive |
| ARHGEF10 | 1.2 | inactive |

No new results follow: an excerpt of the list.
| gene | TNF reporter robust z-score | Call |
| --- | --- | --- |
| DNAJC22 | 0.15 | inactive |
| DNAJC22 | -0.65 | inactive |
| ITGA5 | -0.93 | inactive |
| ITGA5 | -0.98 | inactive |
| ITGA5 | -0.92 | inactive |

Further reagents:
| gene | TNF reporter robust z-score | Call |
| --- | --- | --- |
| EFHC2 | 1.11 | inactive |
| EFHC2 | 0.1 | inactive |
| EFHC2 | 1.49 | inactive |
| EFHC2 | 0.84 | inactive |
| CREB3L3 | -0.14 | inactive |
| CREB3L3 | -0.87 | inactive |
| CREB3L3 | -0.83 | inactive |
| CREB3L3 | 0.22 | inactive |
| ZFYVE16 | -0.51 | inactive |
| ZFYVE16 | 0.1 | inactive |
| ZFYVE16 | 0.21 | inactive |
| ZFYVE16 | 0.17 | inactive |
| ZWILCH | -0.35 | inactive |
| ZWILCH | 0.22 | inactive |
| ZWILCH | -0.17 | inactive |
| EIF4A1 | -0.93 | inactive |
| EIF4A1 | -1.28 | inactive |
| EIF4A1 | -1.29 | inactive |
| EIF4A1 | -0.25 | inactive |
| NINJ2 | 0.36 | inactive |
| NINJ2 | 1.29 | inactive |
| NINJ2 | 0.74 | inactive |
| NINJ2 | 2.62 | inactive |
| ZXDB | 1.79 | inactive |
| ZXDB | 0.21 | inactive |
| ZXDB | 0.96 | inactive |
| ZXDB | -1.39 | inactive |
| UQCRB | 0.24 | inactive |
| UQCRB | -0.37 | inactive |
| UQCRB | -0.06 | inactive |
| UQCRB | -0.78 | inactive |
| SNX12 | -1.25 | inactive |
| SNX12 | -0.5 | inactive |
| SNX12 | -0.73 | inactive |
| SNX12 | -0.49 | inactive |
| ANXA2 | -0.41 | inactive |
| ANXA2 | -0.1 | inactive |
| ANXA2 | -0.9 | inactive |
| ANXA2 | -0.88 | inactive |
| MPST | 1.51 | inactive |
| MPST | 1.26 | inactive |
| MPST | 0.81 | inactive |
| MPST | 0.29 | inactive |
